PubChem BioAssay AID504774 – Drosophila RNAi Screening Center – 2011
Test: 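Genes required for cells to withstand methyl methanesulphonate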 (primary screen). Cells: Drosophila Kc167 cells. Knock-down reagent: long dsRNA against Drosophila genes, about 0.25 µg dsRNA per well. Time to read-out: about 6 days: 3 days knock-down, then 3 days with or without MMS. Challenge: methyl methanesulphonate 0.004% (w/v) for 3 days after knock-down. Detection: 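Viability in wells given MMS, read as ATP luminescence, normalised by quantiles plate by plate and averaged across replicates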. Reading the numbers: mean viability with MMS and viability with MMS: higher = more surviving cells after MMS.
In all, the deposit lists about 23,000 reagents; below is an unselected part of those with a known target gene and a result. 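Values are quantile-normalised luminescence on an arbitrary scale; higher means more cells surviving MMS.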 Names joined by + are all predicted targets of the reagent. Not all columns of the deposit are shown. Reagent sequences are not shown.

| gene knocked down | amplicon | mean viability with MMS | viability with MMS, replicate 1 |
| --- | --- | --- | --- |
| Gp210 (GeneID 35512) | DRSC04861 | 3.55e6 | 4.02e6 |
| Gp210 (GeneID 35512) | DRSC04900 | 3.54e6 | 4.00e6 |
| RN-tre (GeneID 36554) | DRSC07521 | 3.67e6 | 4.11e6 |
| CG34436 (GeneID 5740743) | DRSC15164 | 4.11e6 | 4.86e6 |
| Grd (GeneID 39984) | DRSC11178 | 3.61e6 | 4.08e6 |
| Jwa (GeneID 35128) | DRSC02048 | 3.69e6 | 4.01e6 |
| abd-A (GeneID 42037) | DRSC13179 | 3.32e6 | 3.83e6 |
| abd-A (GeneID 42037) | DRSC16897 | 2.52e6 | 3.43e6 |
| abd-A (GeneID 42037) | DRSC23013 | 3.73e6 | 4.27e6 |
| CG15861 (GeneID 37990) | DRSC04274 | 3.48e6 | 3.87e6 |
| Or9a (GeneID 31975) | DRSC18692 | 3.49e6 | 3.98e6 |
| Sirt2 (GeneID 42414) | DRSC15714 | 3.57e6 | 3.95e6 |
| CG15547 (GeneID 43661) | DRSC15085 | 3.43e6 | 3.85e6 |
| Targ3 (GeneID 5740205) | DRSC11471 | 3.91e6 | 4.49e6 |
| mus101 (GeneID 48309) | DRSC19388 | 3.52e6 | 4.03e6 |
| CG33177 (GeneID 32438) | DRSC19949 | 3.59e6 | 4.09e6 |
| CG34057 (GeneID 3885645) | DRSC08375 | 3.47e6 | 3.87e6 |
| CG13511 (GeneID 37597) | DRSC04153 | 3.76e6 | 4.19e6 |
| trc (GeneID 40165) | DRSC11406 | 3.28e6 | 3.71e6 |
| CG16749 (GeneID 41111) | DRSC15146 | 3.43e6 | 3.92e6 |
| CG10527 (GeneID 37393) | DRSC04078 | 3.71e6 | 4.11e6 |
| CG9485 (GeneID 37435) | DRSC04557 | 3.46e6 | 3.52e6 |
| CG6724 (GeneID 34488) | DRSC02983 | 3.42e6 | 4.03e6 |
| ppk17 (GeneID 35006) | DRSC02252 | 3.52e6 | 4.01e6 |
| CG12438 (GeneID 34202) | DRSC02167 | 3.50e6 | 3.90e6 |
| Phf5a (GeneID 33909) | DRSC03261 | 3.36e6 | 3.63e6 |
| lok (GeneID 35288) | DRSC03567 | 3.55e6 | 4.02e6 |
| prg (GeneID 34177) | DRSC03324 | 3.51e6 | 4.34e6 |
| mex1 (GeneID 39677) | DRSC11368 | 3.35e6 | 3.87e6 |
| Prestin (GeneID 39996) | DRSC10507 | 3.42e6 | 3.81e6 |
| Vha16-5 (GeneID 34482) | DRSC02986 | 3.41e6 | 3.59e6 |
| CG32191 (GeneID 317903) | DRSC10522 | 3.61e6 | 4.15e6 |
| CG18171 (GeneID 38216) | DRSC08524 | 3.54e6 | 4.09e6 |
| Xrcc2 (GeneID 32837) | DRSC19984 | 3.31e6 | 3.65e6 |
| Lcp65Ab2 + Lcp65Ab1 | DRSC10340 | 3.57e6 | 3.99e6 |
| Lcp65Ab2 + Lcp65Ab1 | DRSC10343 | 3.68e6 | 4.32e6 |
| PsGEF (GeneID 31224) | DRSC18596 | 3.40e6 | 3.77e6 |
| Polr3H (GeneID 39310) | DRSC10817 | 3.47e6 | 4.02e6 |
| CG33476 (GeneID 2768727) | DRSC22888 | 3.38e6 | 3.93e6 |
| CG34427 (GeneID 5740165) | DRSC09978 | 3.53e6 | 4.03e6 |
| Cad87A (GeneID 41441) | DRSC16161 | 3.53e6 | 4.02e6 |
| sesB (GeneID 32007) | DRSC20371 | 3.45e6 | 3.98e6 |
| CG2121 (GeneID 35814) | DRSC06819 | 3.77e6 | 4.37e6 |
| CG2121 (GeneID 35814) | DRSC06820 | 3.58e6 | 4.02e6 |
| CG12347 (GeneID 42152) | DRSC14502 | 3.65e6 | 4.23e6 |
| Septin4 (GeneID 32646) | DRSC20205 | 3.66e6 | 4.29e6 |

A portion taken from the entries so far:
| gene knocked down | amplicon | mean viability with MMS | viability with MMS, replicate 1 |
| --- | --- | --- | --- |
| CG13511 (GeneID 37597) | DRSC04153 | 3.76e6 | 4.19e6 |
| trc (GeneID 40165) | DRSC11406 | 3.28e6 | 3.71e6 |
| CG16749 (GeneID 41111) | DRSC15146 | 3.43e6 | 3.92e6 |
| CG10527 (GeneID 37393) | DRSC04078 | 3.71e6 | 4.11e6 |
| CG9485 (GeneID 37435) | DRSC04557 | 3.46e6 | 3.52e6 |
| CG6724 (GeneID 34488) | DRSC02983 | 3.42e6 | 4.03e6 |
